About 7,700 (2.3%) of roughly 330,000 compounds were called active. Inconclusive results, whose numbers are uncertain, are shown with a selection of clear calls. Calls come from the whole dose curve; as a rule, active = well fitted inhibition curve with a large enough effect; inconclusive = small, poorly fitted or top-dose-only effect, or effect the other way; inactive = flat fitted curve, though single readings scatter. A potency beside an inconclusive call is a rough fit, not a confirmed value.
Assay: qHTS screen for small molecules that inhibit ELG1-dependent DNA repair in human embryonic kidney (HEK293T) cells expressing luciferase-tagged ELG1; note: nearly all actives have a fitted effect of over 55% in size
Settings: HEK293T ELG1-luciferase reporter, luminescence, 16 h, DNA damage induced by 5-fluorouridine; activity change, negative = inhibition: at 46.1 µM (top of the series)
In short: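 In this reporter screen, reduction of luminescence relative to DMSO vehicle indicated activity. Compounds and 5-fluorouridine were added together to 2,000 cells per well, incubated for 16 hr at 37 °C, then developed with ONE-Glo.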
% is set by controls: 0 for no effect and ±100 for the full control effect; potency is the fitted concentration of half-maximal effect.

SMILES	Potency	activity change, negative = inhibition
COc1ccc(CNC(=O)C2CCN(S(=O)(=O)c3c(C)n[nH]c3C)CC2)cc1	inconclusive: 6.51 µM [inhibitor, single point]	
COc1cccc(NC(=O)CN(C)C(=O)c2ccccn2)c1	inconclusive: 5.17 µM [activator, single point]	
O=C(Nc1ccc2c(c1)OCO2)C1CCN(C(=O)c2ccc([N+](=O)[O-])cc2)CC1		inactive: 2.39%
CCOC(=O)CCNC(=O)Nc1ccc2nc(C)n(Cc3ccccc3Cl)c(=O)c2c1	inconclusive: 16.4 µM [inhibitor, single point]	
COc1ccc(N2CCN(C(=O)c3ccc(CS(=O)(=O)c4ccccc4C)o3)CC2)cc1	inconclusive: 29.1 µM [inhibitor, single point]	
O=C(NCc1ccccn1)c1ccc(OC2CCN(Cc3ccc(F)cc3F)CC2)cc1	inconclusive: 9.2 µM [inhibitor, partial curve, poor fit]	
Cn1ccnc1SCC(=O)Nc1ccc(SC(F)F)cc1	inconclusive: 18.3 µM [activator, partial curve]	
O=c1[nH]c2sc3c(c2c2nncn12)CCCC3	inconclusive: 5.8 µM [inhibitor, full curve, poor fit]	
Cc1ccc(S(=O)(=O)NCC(=O)OCC(=O)N2CC(=O)Nc3ccccc32)cc1	inconclusive: 20.6 µM [activator, partial curve, poor fit]	
Cc1cccc(NC(=O)C2COc3ccccc3O2)c1 (stereo unspecified)	inconclusive: 16.4 µM [activator, partial curve]	
CC(=O)c1c(N2CCOCC2)[nH]c(-c2ccccc2)nc1=S		inactive: -4.8%
CC(=O)Nc1cccc(NC(=O)CSc2nc3c(c(=O)n(C)c(=O)n3C)n2C)c1	inconclusive: 20.6 µM [activator, partial curve, poor fit]	
COc1ccc(OC)c(S(=O)(=O)N/N=C(/C)c2ccc3c(c2)OCO3)c1		inactive: -0.0053%
CCOCC(=O)Nc1ccc(-c2cn3cccnc3n2)cc1		inactive: 29.7%
Cc1nnc2c(NC(C)C)nc3ccccc3n12	inconclusive: 5.8 µM [activator, single point]	
CN1CCN(C(=S)c2ccc(N(C)C)cc2)CC1		inactive: 17.6%
COc1ccc(NC(=O)Cn2nnc(C(=O)NCCc3ccccc3)c2N)c(OC)c1		inactive: -20.1%
CCn1cc(C(=O)NCc2ccccc2)c(=O)c2cc(F)c(N3CCN(C(=O)c4ccco4)CC3)cc21	active: 16.4 µM	
CC(NC(=S)NCc1ccccc1)C12CC3CC(CC(C3)C1)C2 (stereo unspecified)		inactive: -10.7%
CCN(CC)C(=O)C1CCCN(C(=O)c2cc(COc3ccc4ncccc4c3)on2)C1 (stereo unspecified)	inconclusive: 18.3 µM [inhibitor, partial curve, poor fit]	
COc1cccc(NC(=O)Nc2cc(C)ccc2F)c1	inconclusive: 13 µM [activator, partial curve]	
COc1ccc(CNCC2COc3ccccc3O2)cc1 (stereo unspecified)	inconclusive: 29.1 µM [activator, single point]	
Cc1ccc[n+](CC(=O)c2ccc(Br)cc2)c1		inactive: 11.6%

Sorted by heavy-atom count (high to low): four of the compounds above.
SMILES	Potency	activity change, negative = inhibition
CCOC(=O)CCNC(=O)Nc1ccc2nc(C)n(Cc3ccccc3Cl)c(=O)c2c1	inconclusive: 16.4 µM [inhibitor, single point]	
CC(NC(=S)NCc1ccccc1)C12CC3CC(CC(C3)C1)C2 (stereo unspecified)		inactive: -10.7%
Cn1ccnc1SCC(=O)Nc1ccc(SC(F)F)cc1	inconclusive: 18.3 µM [activator, partial curve]	
Cc1nnc2c(NC(C)C)nc3ccccc3n12	inconclusive: 5.8 µM [activator, single point]	

The list continues:

SMILES	Potency	activity change, negative = inhibition
CSc1nc(Oc2ccc3ccccc3c2)c2ccccc2n1	inconclusive: 20.6 µM [inhibitor, single point]	
COC(=O)C1CCN(C(=O)c2cc(-c3ccc(Cl)s3)nc3ccccc23)CC1	inconclusive: 20.6 µM [inhibitor, single point]	
CC(=O)Oc1ccc(/C=N/NC(=O)c2ccc(N(C)S(=O)(=O)c3ccccc3)cc2)cc1		inactive: -1.46%
Nc1c(Cl)c(Cl)nc(C(=O)OCC(=O)NCc2ccccc2)c1Cl	inconclusive: 23.1 µM [activator, partial curve, poor fit]	
On1c(-c2ccc(Cl)cc2)nc2ccccc21		inactive: 27.9%
CC1(C)OC(c2ccccc2)=C/C(=C/C=N/NC(=O)c2ccncc2)O1	inconclusive: 18.3 µM [inhibitor, single point]	
CCOc1ccc(C2Sc3ccccc3NC3=C2C(=O)OC3)cc1 (stereo unspecified)	inconclusive: 8.2 µM [activator, partial curve]	
Cn1c(Sc2ccc(C(F)(F)F)cc2[N+](=O)[O-])nnc1-c1ccccc1		inactive: -3.84%
COc1ccc(S(=O)(=O)CCC(=O)Nc2cccc(OC)c2)cc1		inactive: 1.78%
CCOC(=O)Cn1nc(C)cc1NC(=O)c1ccncc1		inactive: -6.03%
COC(=O)c1cc(NC(=O)CN(C)C2CCS(=O)(=O)C2)cc(C(=O)OC)c1 (stereo unspecified)		inactive: -25.2%
N/C(Cc1ccc([N+](=O)[O-])cc1)=N\OC(=O)c1ccco1		inactive: -10.7%
COc1ccc(/C=C(/NC(=O)c2ccccc2)C(=O)N/N=C/c2ccc3c(c2)OCO3)cc1OC	inconclusive: 9.2 µM [inhibitor, partial curve, poor fit]	
O=C1C(CSCc2ccccc2)NC(=S)N1c1ccccc1 (stereo unspecified)	inconclusive: 20.6 µM [activator, single point]	
COc1ccccc1C1(CC(=O)Nc2nccs2)CCOC(C(C)C)C1 (stereo unspecified)	inconclusive: 20.6 µM [inhibitor, partial curve]	
COc1ccc(C(=O)NC2=Nc3ccccc3N=C(C)C2c2ccccc2)cc1 (stereo unspecified)		inactive: -19.9%
Cc1ccc(OCc2cnc(Cl)s2)c(C)c1	inconclusive: 29.1 µM [activator, single point]	
CCCc1nc(-c2cc3ccc(C)cc3[nH]c2=O)no1	inconclusive: 20.6 µM [activator, partial curve, poor fit]	
O=C(Nc1ccc2c(c1)OCO2)C1Cc2ccccc2CN1S(=O)(=O)c1cccs1 (stereo unspecified)	inconclusive: 20.6 µM [activator, single point]	
CC(=O)C1=C(O)C(=O)N(CCc2ccccc2)C1c1ccccc1[N+](=O)[O-] (stereo unspecified)		inactive: -3.97%
O=C(O)c1cccc(NC(=S)NC(=O)c2ccc3ccccc3c2)c1	inconclusive: 2.91 µM [activator, partial curve]	
N#Cc1ccc(NC(=O)Nc2cccc(C#N)c2)cc1	inconclusive: 16.4 µM [inhibitor, single point]	
COc1ccc(-c2nnc3ccc(SCc4ccccc4)nn23)cc1	inconclusive: 23.1 µM [inhibitor, partial curve, poor fit]	
